PubChem BioAssay AID720505, Drosophila RNAi Screening Center | 2013

Aim: 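Genes needed for store-operated calcium entry in fly cells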 (primary screen)
System: Drosophila S2R+ cells
Reagent: long dsRNA against Drosophila genes
Conditions: thapsigargin (2 µM) in calcium-free buffer to empty internal stores, then 2 mM calcium added back
Measurement: 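Fluo-4 signal in 384-well plates read on a FLIPR after thapsigargin (2 µM, calcium-free) store depletion and 2 mM calcium add-back; unnormalised mean endpoint per well; screen run twice, selected wells retested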
Direction: calcium signal: higher = more calcium entry after store depletion
Hit rule: 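About 1500 genes called as lowering calcium entry, by varying amounts, judged against per-plate control wells with STIM1 as positive and Rho1 as negative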
Calls: active = called as lowering calcium entry; inactive = not called
The deposit covers about 20,000 reagents; shown is an unselected part of those with a known target gene and a result. In the full data, about 2,100 (10%) are marked active. 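Raw plate signals without normalisation; calls rest on control-based scores that were not deposited; replicate 2 separates called from uncalled poorly.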 Unmarked entries are inactive. The numbers tell different reagents against one gene apart. Names joined by + are all predicted targets of the reagent. The record does not give: the amount of reagent, the time to read-out.

Target gene | dsRNA no. | calcium signal, replicate 1 | calcium signal, replicate 2
spict (spichthyin) | 1 | 101 | 122
Pepck2 (Phosphoenolpyruvate carboxykinase 2) | 1 | 123 | 130
primo-2 + primo-1 | 1 | 137 | 153
TrxT (Thioredoxin T) | 1 | 122 | 228
TrxT (Thioredoxin T) | 2 | 100 | 130
s-cup (stanley-cup) | 1 | 139 | 227
s-cup (stanley-cup) | 2 | 128 | 199
fd59A (forkhead domain 59A) | 1 | 70.3 (active) | 178
Obp85a (Odorant-binding protein 85a) | 1 | 117 | 120
ccb (central complex broad) | 1 | 233 | 104
prim (primacord) | 1 | 153 | 139
Gbeta13F (G protein beta subunit 13F) | 1 | 156 | 120
Crg-1 (Circadianly Regulated Gene) | 1 | 156 | 166
Cpsf6 (Cleavage and polyadenylation specific factor 6) | 1 | 51.6 (active) | 83.7
Desat1 (Desaturase 1) | 1 | 166 | 112
ck (crinkled) | 1 | 107 | 102
CG9932 | 1 | 76 (active) | 88.4
pnt (pointed) | 1 | 157 | 120
pnt (pointed) | 2 | 137 | 183
fkh (fork head) | 1 | 154 | 198
RpS15Ab + RpS15Aa | 1 | 120 | 150
RpS15Ab + RpS15Aa | 2 | 70.6 (active) | 74.3
gukh (GUK-holder) | 1 | 141 | 136
gukh (GUK-holder) | 2 | 117 | 125
gukh (GUK-holder) | 3 | 114 | 245
CG13047 | 1 | 101 | 126
Cyt-c-d (Cytochrome c distal) | 1 | 113 | 130
CG12123 | 1 | 145 | 70.3
Dci (Dodecenoyl-CoA delta-isomerase) | 1 | 119 | 122
CG8206 | 1 | 107 | 138
CG3165 | 1 | 116 | 240
CG11695 | 1 | 92.7 | 116
CG42331 | 1 | 71.8 | 146
CG42331 | 2 | 164 | 90.3

In a second layout: results already given.
{"Target gene": "Pepck2 (Phosphoenolpyruvate carboxykinase 2)", "dsRNA no.": 1, "calcium signal, replicate 1": 123, "calcium signal, replicate 2": 130}
{"Target gene": "primo-2 + primo-1", "dsRNA no.": 1, "calcium signal, replicate 1": 137, "calcium signal, replicate 2": 153}
{"Target gene": "TrxT (Thioredoxin T)", "dsRNA no.": 1, "calcium signal, replicate 1": 122, "calcium signal, replicate 2": 228}
{"Target gene": "TrxT (Thioredoxin T)", "dsRNA no.": 2, "calcium signal, replicate 1": 100, "calcium signal, replicate 2": 130}
{"Target gene": "s-cup (stanley-cup)", "dsRNA no.": 1, "calcium signal, replicate 1": 139, "calcium signal, replicate 2": 227}
